Structures can show the parent of a compound that is named as a salt. Some of the results follow. Hit calls seldom repeat between salt and free forms of one compound.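 Kinases, fused to nanoluciferase, were expressed in K562 cells; luminescence was measured every 4 h from 2 to 18 h as percent of control (DMSO = 100%, positive control = 0%). A time point is decreased if signal falls significantly (2 sigma). Hits were called by the authors by a rule that is not shown; the count of time points alone does not decide it.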

By UniProt entry, the sequences of proteins in these tests, tags left out. Where a name states a change or a piece, a line headed by the entry shows the natural chain unless it says otherwise.
UniProt P14616: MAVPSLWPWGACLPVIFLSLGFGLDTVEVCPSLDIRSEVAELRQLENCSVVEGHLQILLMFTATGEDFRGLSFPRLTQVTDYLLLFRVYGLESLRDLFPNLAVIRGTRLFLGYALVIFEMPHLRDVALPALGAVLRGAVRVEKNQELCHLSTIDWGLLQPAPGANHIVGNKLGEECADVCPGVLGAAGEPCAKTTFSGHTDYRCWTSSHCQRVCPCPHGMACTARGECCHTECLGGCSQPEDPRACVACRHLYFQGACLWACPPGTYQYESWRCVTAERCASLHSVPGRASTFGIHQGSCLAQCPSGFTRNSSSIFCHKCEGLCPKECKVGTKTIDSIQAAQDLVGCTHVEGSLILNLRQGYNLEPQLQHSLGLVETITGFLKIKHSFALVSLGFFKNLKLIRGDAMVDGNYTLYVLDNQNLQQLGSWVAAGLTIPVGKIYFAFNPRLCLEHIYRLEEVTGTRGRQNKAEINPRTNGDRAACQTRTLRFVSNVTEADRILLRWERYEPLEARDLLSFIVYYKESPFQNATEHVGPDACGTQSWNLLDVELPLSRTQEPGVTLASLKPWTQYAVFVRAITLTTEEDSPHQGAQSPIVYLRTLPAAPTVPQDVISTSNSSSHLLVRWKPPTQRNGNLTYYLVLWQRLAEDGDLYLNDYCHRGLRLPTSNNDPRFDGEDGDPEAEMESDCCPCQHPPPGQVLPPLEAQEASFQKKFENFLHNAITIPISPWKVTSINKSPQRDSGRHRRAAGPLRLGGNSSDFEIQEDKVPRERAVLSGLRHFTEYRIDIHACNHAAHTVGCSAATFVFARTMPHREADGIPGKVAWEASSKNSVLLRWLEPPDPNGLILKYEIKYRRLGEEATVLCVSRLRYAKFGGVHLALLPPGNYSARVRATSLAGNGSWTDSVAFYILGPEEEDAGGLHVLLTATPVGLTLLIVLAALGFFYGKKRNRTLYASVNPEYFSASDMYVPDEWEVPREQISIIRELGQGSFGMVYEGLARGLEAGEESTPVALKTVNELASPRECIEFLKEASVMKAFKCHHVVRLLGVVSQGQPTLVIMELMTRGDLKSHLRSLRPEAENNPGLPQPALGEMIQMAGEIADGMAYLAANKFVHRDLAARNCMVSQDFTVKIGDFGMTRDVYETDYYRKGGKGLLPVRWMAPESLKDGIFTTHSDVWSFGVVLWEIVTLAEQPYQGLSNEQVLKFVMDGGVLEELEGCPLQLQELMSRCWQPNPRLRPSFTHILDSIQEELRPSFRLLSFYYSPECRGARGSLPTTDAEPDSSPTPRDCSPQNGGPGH

The test concerns the target INSRR (UniProt P14616). The test is described as follows: kinase-Nluc reporter destabilization hit call (1 = scored as downregulated) (binary); higher = compound decreases kinase abundance. Conditions: K562; 2-18 h.
Take `CC1=C[C@]23C(=O)[C@@H](C=C(CO)[C@@H](O)[C@]2(O)[C@H]1O)[C@H]1[C@@H](C[C@H]3C)C1(C)C` [Ingenol] (10 µM): the “kinase-Nluc reporter destabilization hit call” value was inactive: 0.
The figure for `C=C[C@H]1CN2CC[C@]3(C(=O)Nc4ccccc43)[C@@H]2C[C@@H]1/C(=C\OC)C(=O)OC` [Corynoxeine] (2 µM) is inactive: 0.
Then `O=C(O)c1sc2cc(Cl)ccc2c1Cl` (10 µM), with inactive: 0; and `C[C@H]1CC[C@]2(NC1)O[C@H]1C[C@H]3[C@@H]4CC[C@H]5C[C@@H](O)CC[C@]5(C)[C@H]4CC[C@]3(C)[C@H]1[C@@H]2C` [Tomatidine (hydrochloride)] (10 µM), with inactive: 0.
On to `O=C1C=CC[C@@H]2[C@H]3CCCN4CCC[C@@H](CN12)[C@@H]34` [Sophocarpine (monohydrate)] (2.5 µM), for which the “kinase-Nluc reporter destabilization hit call” value was inactive: 0.
As for `Cc1n[nH]cc1-c1cc2nc([C@@H]3CC4CCN3CC4)[nH]c(=O)c2s1` [Simurosertib] (2.5 µM), the “kinase-Nluc reporter destabilization hit call” value is inactive: 0.
With `O=C(N[C@@H](COc1ccc2[nH]c(=O)[nH]c2c1)c1ccccc1)c1cccn(Cc2ccc(F)c(F)c2)c1=O` (2.5 µM), the “kinase-Nluc reporter destabilization hit call” value is inactive: 0.
With `O=C(/C=C/c1ccccc1)OC[C@H]1O[C@@H](O[C@@H]2OC=C[C@H]3[C@H](O)[C@@H]4O[C@]4(CO)[C@@H]23)[C@H](O)[C@@H](O)[C@@H]1O` [Picroside I] (10 µM), the “kinase-Nluc reporter destabilization hit call” value is inactive: 0.
`C[C@@H]1CC[C@H]2[C@@H](C)C(=O)O[C@@H]3O[C@@]4(C)CC[C@@H]1[C@]32OO4` [Artemisinin] (10 µM): the “kinase-Nluc reporter destabilization hit call” value was inactive: 0.
The figure for `N#CC(C#N)=Cc1ccc([N+](=O)[O-])c(O)c1` (10 µM) is inactive: 0; for `C[C@H](CCC(=O)O)C[C@H](C)C[C@H](C)C(=O)/C=C(\O)[C@H](C)C[C@H](C)C/C=C/[C@@H](C)[C@@H](O)[C@@H](C)[C@@H](O)C[C@@H]1CC[C@@](C)([C@H]2CC[C@@](C)([C@@H](C)O)O2)O1` [Ionomycin (calcium)] (2.5 µM) it is inactive: 0; for `CC1C(=O)OC2C(O)C34C5OC(=O)C3(OC3OC(=O)C(O)C34C(C(C)(C)C)C5O)C12O` (centres undefined) [Ginkgolide C] (10 µM) it is inactive: 0.
With `Cn1cc(C2=C(c3cn(C4CCN(Cc5ccccn5)CC4)c4ccccc34)C(=O)NC2=O)c2ccccc21` [Enzastaurin] (10 µM), the “kinase-Nluc reporter destabilization hit call” value was inactive: 0.
The figure for `O=c1[nH]c2ccccc2n1C1CCN(Cc2ccc(-c3[nH]c4cc5ncnc5cc4nc3-c3ccccc3)cc2)CC1` [AKT inhibitor VIII] (2.5 µM) is inactive: 0; for `CCN1CCN(C(=O)Cc2ccc(Nc3ncc(F)c(Nc4ccc(C(=O)Nc5ccccc5Cl)cc4)n3)cc2)CC1` (2.5 µM) it is inactive: 0; for `C=CC(=O)N[C@H]1C=C(C)c2c(-c3cnc4ccccc4c3)c3c(N)ncnc3n2C1` (10 µM) it is inactive: 0.
The figure for `CC(C)(C)c1cc(C=C(C#N)C#N)cc(Br)c1O` (2.5 µM) is inactive: 0.
Then `CCCCNc1nc(N)c2[nH]c(=O)n(Cc3ccc(C)nc3)c2n1` (10 µM), with inactive: 0; and `C=CC(=O)Nc1ccc2[nH]c(=O)n(C3CCN(Cc4ccc(-c5nc6cc[nH]c(=O)c6cc5-c5ccccc5)cc4)CC3)c2c1` [Borussertib] (10 µM), with inactive: 0; and `COc1ccc(N(C(=O)Oc2c(C)cccc2C)c2ccnc(Nc3ccc(N4CCN(C)CC4)cc3)n2)c(OC)c1` (2.5 µM), with inactive: 0.
Turning to `COc1ccc2c(c1)[nH]c1c(C)nccc12` [Harmine] (10 µM), the “kinase-Nluc reporter destabilization hit call” value is inactive: 0.
The figure for `O=c1cc(O)c2ccccc2o1` [4-Hydroxycoumarin] (10 µM) is inactive: 0.
The figure for `CC(=O)c1c(O)c(C)c(O)c(Cc2c(O)c3c(c(C(=O)/C=C/c4ccccc4)c2O)OC(C)(C)C=C3)c1O` [Rottlerin] (2 µM) is inactive: 0.
Turning to `N#CC(C#N)=Cc1ccc(O)c(O)c1` [Tyrphostin 23] (10 µM), the “kinase-Nluc reporter destabilization hit call” value is inactive: 0.
On to `C/C(O)=C(\C#N)C(=O)Nc1cc(Br)ccc1Br` (10 µM), for which the “kinase-Nluc reporter destabilization hit call” value was inactive: 0.
`Cc1ccccc1-n1c(Cn2ncc3c(N)ncnc32)nc2cccc(C)c2c1=O` (10 µM): the “kinase-Nluc reporter destabilization hit call” value is inactive: 0.
Turning to `COc1cc2c(cc1F)C(c1ccccc1Cl)=Nc1c(n[nH]c1C)N2` (0.5 µM), the “kinase-Nluc reporter destabilization hit call” value was inactive: 0.
With `COc1ccc2c(c1)/C(=C/c1cnc[nH]1)C(=O)N2` (2.5 µM), the “kinase-Nluc reporter destabilization hit call” value was inactive: 0.
Take `O=[N+]([O-])/C=C/c1ccc2c(c1)OCO2` (2.5 µM): the “kinase-Nluc reporter destabilization hit call” value is inactive: 0.
